Reference: US12638439B2, “Method of using human spheroids for drug discovery” (AxoSim, Inc., priority 2019, dated 2026)

Test system: RTT spheroids
Assay: FLIPR spontaneous calcium oscillation assay of iPSC-derived cortical brain spheroids (SMART library screen)
Type: cell-based, human
Conditions: 298-compound SMART library on WT and RTT matured spheroids
Source text: In one embodiment, the present disclosure provides human induced pluripotent stem cells iPScs that are subsequently differentiated into human cortical neurons comprising neurons and astrocytes in approximately a 50:50 ratio. The ratio can be adjusted on a case by case basis depending on the particular disease of interest from 1 to 99% either neurons or astrocytes. The 3D spheroids are comprised of approximately 50:50 neurons to astrocytes ratio +1-10%. The methods of differentiating and forming 3 dimensional spheroids and functional testing with FLIPR optical techniques is described in copending patent application No. 62/532667. […]
The oscillations being measured are from calcium flux moving into and out of the cells at ambient conditions. […] When analyzing the data, it is important to understand that multiple factors contribute to the signal being recorded by the FLIPR software. Therefore, in the present disclosure 7 parameters are recorded to determine if the data generated from the spheroid is meaningful. The parameters measured are, e.g., peak count, peak width, average peak spacing, peak spacing standard deviation, peak decay time, peak rise time, and/or peak amplitude.
In the present disclosure, the SMART library that contained 298 compounds was used on both WT and RTT matured spheroids over several weeks and the FLIPR data collected and analyzed for potential therapeutic efficacy. […]

In the case of `COc1cc2c(cc1OC)C(=O)C(CC1CCN(Cc3ccccc3)CC1)C2` (stereo not shown) [Donepezil], the “outcome of the SMART library screen (multivariant analysis)” value is reported as “therapeutics of interest”.
